Source: publication PMC3636079, “Determinants at the N- and C-termini of Gα12 required for activation of Rho-mediated signaling” (Journal of Molecular Signaling, 2013)
These are yes or no findings as the source states them, for the method shown. Binding seen in cells or lysates may run through a third protein. Some results given as binding are weak or reduced against the parent protein; the word gives no strength. Tags and fused reporters may be left off the sequences shown.

Chains of the proteins cited; added tags and fusions are not shown. Residues count along the entry.
UniProt P30153: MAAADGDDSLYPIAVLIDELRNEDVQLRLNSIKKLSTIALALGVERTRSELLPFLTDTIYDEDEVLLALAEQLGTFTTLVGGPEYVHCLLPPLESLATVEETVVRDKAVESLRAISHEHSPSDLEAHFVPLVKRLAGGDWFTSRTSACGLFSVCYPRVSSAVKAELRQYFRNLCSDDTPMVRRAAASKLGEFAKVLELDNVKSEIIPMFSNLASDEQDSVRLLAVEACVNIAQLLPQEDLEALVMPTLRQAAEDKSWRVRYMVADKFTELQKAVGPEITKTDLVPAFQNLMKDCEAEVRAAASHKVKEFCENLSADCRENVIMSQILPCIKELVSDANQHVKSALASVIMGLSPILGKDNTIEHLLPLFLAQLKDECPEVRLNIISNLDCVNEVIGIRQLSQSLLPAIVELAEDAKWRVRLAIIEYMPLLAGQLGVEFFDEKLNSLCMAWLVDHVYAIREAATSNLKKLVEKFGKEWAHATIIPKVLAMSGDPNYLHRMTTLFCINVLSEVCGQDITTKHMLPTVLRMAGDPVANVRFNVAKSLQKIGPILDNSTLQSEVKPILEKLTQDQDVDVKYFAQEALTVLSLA
UniProt P12830, residues 785-882: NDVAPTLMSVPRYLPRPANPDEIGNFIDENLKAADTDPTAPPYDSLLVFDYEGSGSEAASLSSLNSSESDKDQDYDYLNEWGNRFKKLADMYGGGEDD

Columns and labels:
Test in all cases: pull-down; GST fusion (or GST alone) immobilised on glutathione-sepharose; HEK293 detergent-soluble extract diluted to 0.05% polyoxyethylene-10-lauryl ether in 50 mM HEPES pH 7.5, 1 mM EDTA, 3 mM dithiothreitol, 10 mM MgSO4; about 2 h at 4°C; three washes; immunoblot with anti-Gα12 or anti-myc; band intensities given as pulldown:load ratio; only the target purified
[1] = target: GST fusion of the scaffolding Aα subunit of protein phosphatase-2A (UniProt P30153)
[2] = target: T1, GST fusion of protein phosphatase-5 (UniProt P53041)
T1 sequence: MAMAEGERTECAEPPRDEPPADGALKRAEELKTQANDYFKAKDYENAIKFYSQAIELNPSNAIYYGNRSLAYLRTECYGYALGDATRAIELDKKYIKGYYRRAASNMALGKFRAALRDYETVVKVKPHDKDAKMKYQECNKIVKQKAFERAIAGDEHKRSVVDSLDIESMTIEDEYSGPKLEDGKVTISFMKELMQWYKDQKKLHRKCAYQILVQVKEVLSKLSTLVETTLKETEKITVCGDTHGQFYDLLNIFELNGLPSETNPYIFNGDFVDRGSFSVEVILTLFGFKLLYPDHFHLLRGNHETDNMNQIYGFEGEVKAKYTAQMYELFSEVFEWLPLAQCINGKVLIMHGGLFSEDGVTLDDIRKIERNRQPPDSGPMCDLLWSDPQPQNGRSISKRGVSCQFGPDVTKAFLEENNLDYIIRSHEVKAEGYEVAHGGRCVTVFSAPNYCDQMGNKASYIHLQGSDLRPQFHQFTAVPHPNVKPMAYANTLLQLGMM

[3] = target: T2, GST fusion of amino acids 320-606 of LARG (GST-LARG-RH) (UniProt Q9NZN5)
T2 sequence: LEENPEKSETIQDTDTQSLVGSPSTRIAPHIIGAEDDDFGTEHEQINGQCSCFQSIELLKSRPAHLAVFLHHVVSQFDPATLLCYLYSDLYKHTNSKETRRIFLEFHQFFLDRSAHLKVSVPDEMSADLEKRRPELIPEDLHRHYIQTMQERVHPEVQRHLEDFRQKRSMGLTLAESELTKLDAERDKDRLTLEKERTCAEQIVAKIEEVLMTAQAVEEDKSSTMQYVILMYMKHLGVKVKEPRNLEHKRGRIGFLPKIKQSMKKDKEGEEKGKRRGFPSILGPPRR

[4] = target: GST fusion of the C-terminal 107 amino acids of heat shock protein-90 alpha (UniProt P07900)
[5] = target: T3, GST fusion of amino acids 1-252 of p115RhoGEF (GST-p115-RH) (UniProt Q92888)
T3 sequence: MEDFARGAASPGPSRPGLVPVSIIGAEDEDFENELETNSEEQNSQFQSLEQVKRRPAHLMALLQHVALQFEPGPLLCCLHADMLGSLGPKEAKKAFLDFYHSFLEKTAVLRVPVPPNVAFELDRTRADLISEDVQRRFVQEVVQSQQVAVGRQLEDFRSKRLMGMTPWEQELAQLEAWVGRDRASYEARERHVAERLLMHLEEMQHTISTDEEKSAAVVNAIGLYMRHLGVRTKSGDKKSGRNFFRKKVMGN

[6] = target: GST fusion of the C-terminal 98 amino acids of E-cadherin (UniProt P12830)

Measured: binding

B1: myc-tagged Gα12 Gln^229Leu (myc-Gα12^QL) (protein, UniProt P27600 1-379)
chain: MSGVVRTLSRCLLPAEAGARERRAGAARDAEREARRRSRDIDALLARERRAVRRLVKILLLGAGESGKSTFLKQMRIIHGREFDQKALLEFRDTIFDNILKGSRVLVDARDKLGIPWQHSENEKHGMFLMAFENKAGLPVEPATFQLYVPALSALWRDSGIREAFSRRSEFQLGESVKYFLDNLDRIGQLNYFPSKQDILLARKATKGIVEHDFVIKKIPFKMVDVGGLRSQRQKWFQCFDGITSILFMVSSSEYDQVLMEDRRTNRLVESMNIFETIVNNKLFFNVSIILFLNKMDLLVEKVKSVSIKKHFPDFKGDPHRLEDVQRYLVQCFDRKRRNRSKPLFHHFTTAIDTENIRFVFHAVKDTILQENLKDIMLQ
binds: all assays above

B2: Gα12 Gln^229Leu, untagged (Gα12^QL) (protein, UniProt P27600 1-379)
chain: B1 chain
binds: [5]
